Experiment [1] deals with MILI (PIWIL2) piRISC loaded with piRNA #1 (26 nt). The experiment is described as follows: pre-steady-state target cleavage rate (min^-1); higher = faster piRNA-guided slicing of the target. Conditions: guide: piRNA #1 5'p-UGAGGUAGUAGGUUGUAUAGUAUCCA; auxiliary factor: 500 nM mouse GTSF1. In outline: (§1)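 The pre-steady-state cleavage rate came from a burst-and-steady-state fit to pooled data from three Cleave-'n-Seq trials, in which uncleaved targets were sequenced and normalised to depth and to weakly complementary targets. Each reaction held 0.1 nM transcribed, DNA-blocked target RNA library and 1 nM active affinity-purified piRISC carrying one synthetic guide, with or without 500 nM GTSF1 partner protein, in HEPES–potassium acetate buffer at 33 °C for 0–8 or 0–960 min. k3 was capped at 0.0001 min^-1.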

The subject of experiment [2] is EfPiwi piRISC loaded with piRNA #1 (26 nt). The experiment is described as follows: pre-steady-state target cleavage rate (min^-1); guide: piRNA #1 5'p-UGAGGUAGUAGGUUGUAUAGUAUCCA; higher = faster piRNA-guided slicing of the target. Conditions: auxiliary factor: 500 nM Ephydatia muelleri Gtsf1. In outline:
as §1

Experiment [3] concerns MIWI (PIWIL1) piRISC loaded with L1MC piRNA (30 nt). The experiment is described as follows: pre-steady-state target cleavage rate (min^-1); MIWI and MILI are mouse PIWI proteins and EfPiwi is from a freshwater sponge; tags in brackets are library labels; higher = faster piRNA-guided slicing of the target. The settings on record: guide: L1MC piRNA 5'p-UAACUAAAUACUAUGCAAGCUGUAGGUCCU
In outline: as §1

Where [4] appears, read: auxiliary factor: 500 nM mouse GTSF1.
[5] abbreviates: auxiliary factor: none (no GTSF1).

± gives the standard deviation. Only a part is listed here, and it is no random draw. For some assays here: The uncertainty is large for many entries.

Regarding GGAGACGAUAGUAUACAACCUAGUACCUCA, the entries for the “pre-steady-state target cleavage rate” value in experiment [1] and in experiment [2] were 0.0719 ± 0.011 and 0.00201 ± 0.0013, respectively. The like results for GGAGACCUAAGUAUACAACCUACUUCCUCA were, in that order, 0.0285 ± 0.0069 and 0.00301 ± 0.0041. In the same order, the values of GGAGACCUAUCUAUUCAACGUACUACCUCA are 0.00945 ± 0.003 and 0.00247 ± 0.005. Turning to “UGGACCUACAGCUUGCAUAGUAUUUAGUUU [g2:g29:cont:t1U]”, the “pre-steady-state target cleavage rate” value in experiment [3] (setting [4]) turned out to be 1.62 ± 0.082. The same measure, in the same setting: under ACGAGCUACAGCUUGCAUAGUAUUUAGUUA stands 1.54 ± 0.057. UGGACCUACAGCAAGCAUAGUAUUUUCAAA: the “pre-steady-state target cleavage rate” value in experiment [3] (setting [5]) is 0.00052 ± 0.0074.

With UCCACCUACAGCUUGCAUAGUAUGUAGUUA, the “pre-steady-state target cleavage rate” value in experiment [3] (setting [5]) is 0.00331 ± 0.0036. Still for that read-out and setting: in the case of UCCACCUACAGCUUGCAUAGUUAUUACAAA it was 0.000565 ± 0.012; in that of UGGACCUACAGCUUGGUAAGUAUUUAGUUA, 0.000569 ± 0.0049. Take UGGACCUACAGCAACCAUAGUAUUUAGUAA: in experiment [3] (setting [5]), the “pre-steady-state target cleavage rate” value was 0.00053 ± 0.0058. Turning to UCCACCUACAGCUUGCAUUCUAUUUUCAAA, in experiment [3] (setting [5]), the “pre-steady-state target cleavage rate” value is 0.000751 ± 0.0078.

UCCUGGAUGUGCUUGGUUAGUAUUUAGUAA: the “pre-steady-state target cleavage rate” value in experiment [3] (setting [4]) was determined as 0.00438 ± 0.0049. In the case of “UCGACCUACAGCUUGCAUUCAUAAAUCAAA [g13:g28:cont:t1A]”, the “pre-steady-state target cleavage rate” value in experiment [3] (setting [5]) was determined as 0.000438 ± 0.013. Same read-out and setting: in the case of UCGACCUACAGCUUGCAUAGUAUUUGUUA it was 0.00278 ± 0.0036; in that of UCCUGGAUGAGCUUGCAUAGUAUUAACAAA, 0.00188 ± 0.004; in that of AGGACCUACAGCUUGCAUAGAUAUUACAAA, 0.000743 ± 0.011. UCGACCUACAGCUUGCAUACAUUUUUCAAA: the “pre-steady-state target cleavage rate” value in experiment [3] (setting [5]) was found to be 0.000353 ± 0.015. Same read-out and setting: in the case of UGGACCUAGUCCUUGCAUAGUAUUUUCAAA it was 0.000773 ± 0.0041. The same measure, in the same setting: in the case of UCGACCUACACGUUGCAUAGUAUUUAGAAA it was 0.00185 ± 0.0034; in that of UCCUGGAUCAGCUUCGUUAGUAUUUAGUUA, 0.0018 ± 0.0046; in that of UCCACCUACAGCUUCCAUACUAUUUAGUUA, 0.00123 ± 0.0051. The same measure, in the same setting: in the case of AGGACCUACAGCUUGCAUAGUUAAUACAAA it was 0.00127 ± 0.0073; in that of UCCUGGAUCAGCUUGCAAUCUAUUUUCAAA, 0.0002 ± 0.015.

For the origin of these results see the supplement of paper PMC10338343.
